In test [1] the target is T1, DppBCD^E179QF^E187Q (E. coli) (UniProt P0AEF8+P0AEG1+P0AAG0+P37313).
T1 sequence 1: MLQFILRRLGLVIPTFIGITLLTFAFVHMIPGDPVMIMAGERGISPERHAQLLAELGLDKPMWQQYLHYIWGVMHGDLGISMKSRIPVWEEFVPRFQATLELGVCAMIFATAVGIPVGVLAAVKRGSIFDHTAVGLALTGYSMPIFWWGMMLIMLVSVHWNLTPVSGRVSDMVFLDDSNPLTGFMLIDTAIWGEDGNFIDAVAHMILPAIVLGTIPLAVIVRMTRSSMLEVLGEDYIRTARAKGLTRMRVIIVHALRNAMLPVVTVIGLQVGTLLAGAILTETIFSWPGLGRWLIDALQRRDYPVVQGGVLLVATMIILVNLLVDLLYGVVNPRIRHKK
T1 sequence 2: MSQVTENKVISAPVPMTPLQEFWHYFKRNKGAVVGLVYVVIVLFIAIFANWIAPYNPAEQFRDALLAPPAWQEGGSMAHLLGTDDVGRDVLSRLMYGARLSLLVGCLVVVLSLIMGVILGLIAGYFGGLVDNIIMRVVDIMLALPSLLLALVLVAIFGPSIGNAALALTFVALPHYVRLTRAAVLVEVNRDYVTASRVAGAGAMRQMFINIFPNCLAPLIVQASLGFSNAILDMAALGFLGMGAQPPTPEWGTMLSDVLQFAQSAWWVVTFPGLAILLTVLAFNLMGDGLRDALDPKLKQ
T1 sequence 3: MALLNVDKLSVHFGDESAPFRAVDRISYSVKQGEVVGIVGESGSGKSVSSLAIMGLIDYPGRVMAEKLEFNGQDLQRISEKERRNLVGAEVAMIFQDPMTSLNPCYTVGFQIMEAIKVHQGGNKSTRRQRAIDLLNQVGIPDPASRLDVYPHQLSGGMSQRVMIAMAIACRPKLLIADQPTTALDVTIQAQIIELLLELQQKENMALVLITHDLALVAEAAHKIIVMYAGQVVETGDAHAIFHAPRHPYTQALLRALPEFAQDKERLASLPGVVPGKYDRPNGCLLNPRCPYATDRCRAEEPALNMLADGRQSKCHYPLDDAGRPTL
T1 sequence 4: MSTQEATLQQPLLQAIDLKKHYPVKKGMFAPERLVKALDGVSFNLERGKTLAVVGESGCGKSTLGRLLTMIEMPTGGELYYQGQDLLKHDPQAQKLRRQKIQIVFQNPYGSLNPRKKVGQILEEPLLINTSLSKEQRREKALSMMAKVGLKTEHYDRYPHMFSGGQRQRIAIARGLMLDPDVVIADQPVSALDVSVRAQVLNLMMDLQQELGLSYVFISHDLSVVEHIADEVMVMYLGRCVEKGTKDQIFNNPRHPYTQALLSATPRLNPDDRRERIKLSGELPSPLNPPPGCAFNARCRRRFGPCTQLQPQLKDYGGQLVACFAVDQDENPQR
The experiment in a line: pull-down; affinity purification of DppBCD(E179Q)F(E187Q) from E. coli; endogenous DppA found with it on the gel.

For test [2], the target named is T2, DppF with C-terminal Strep-tag II (E. coli) (UniProt P37313).
T2 sequence: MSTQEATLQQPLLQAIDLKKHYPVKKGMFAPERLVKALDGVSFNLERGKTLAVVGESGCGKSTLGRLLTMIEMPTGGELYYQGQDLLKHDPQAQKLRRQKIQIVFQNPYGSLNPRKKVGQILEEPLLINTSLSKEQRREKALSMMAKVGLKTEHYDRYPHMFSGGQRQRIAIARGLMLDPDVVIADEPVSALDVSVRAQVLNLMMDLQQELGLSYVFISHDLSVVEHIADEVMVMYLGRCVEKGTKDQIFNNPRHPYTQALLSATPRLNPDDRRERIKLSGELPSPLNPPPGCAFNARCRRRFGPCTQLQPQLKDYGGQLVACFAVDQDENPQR
Description: pull-down; affinity purification (Strep-tag II on DppF) of co-expressed DppBCDF variants, 12% SDS-PAGE.

Test [3] has as its target T3, DppB (E. coli) (UniProt P0AEF8).
T3 sequence: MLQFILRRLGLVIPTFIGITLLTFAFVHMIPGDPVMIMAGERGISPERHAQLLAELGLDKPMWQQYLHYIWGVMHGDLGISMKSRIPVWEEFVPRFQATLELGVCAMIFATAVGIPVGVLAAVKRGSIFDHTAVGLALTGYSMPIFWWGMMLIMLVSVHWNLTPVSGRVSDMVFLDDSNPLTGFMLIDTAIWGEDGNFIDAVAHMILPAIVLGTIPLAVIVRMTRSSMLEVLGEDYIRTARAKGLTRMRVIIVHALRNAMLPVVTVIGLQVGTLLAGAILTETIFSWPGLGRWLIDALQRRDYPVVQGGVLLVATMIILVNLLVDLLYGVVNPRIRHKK
Description: cryo-EM structure; apo DppBCDF, co-expressed and co-purified complex in 0.006% GDN with DTT; 3.2 Å; inward-facing; both purified.

The target of test [4] is T3, DppB (E. coli). Description: cryo-EM structure; DppBCD(E179Q)F(E187Q), co-purified complex, 2 mM AMPPNP and 2 mM MgCl2, 30 min on ice; inward-facing; both purified.
Test [5] concerns the target T3, DppB (E. coli). The experiment in a line: cryo-EM structure; DppBCD(E179Q)F(E187Q), co-purified complex, 2 mM ATPγS and 2 mM MgCl2, 30 min on ice; inward-facing; both purified.
The target of test [6] is T3, DppB (E. coli). The experiment in a line: cryo-EM structure; DppA-His co-expressed and co-purified (Ni-NTA) with DppBCD(E179Q)F(E187Q), 2 mM ATPγS and 2 mM MgCl2, 30 min on ice; 2.73 Å; outward-facing; both purified.
In test [7] the target is T4, DppC (E. coli) (UniProt P0AEG1).
T4 sequence: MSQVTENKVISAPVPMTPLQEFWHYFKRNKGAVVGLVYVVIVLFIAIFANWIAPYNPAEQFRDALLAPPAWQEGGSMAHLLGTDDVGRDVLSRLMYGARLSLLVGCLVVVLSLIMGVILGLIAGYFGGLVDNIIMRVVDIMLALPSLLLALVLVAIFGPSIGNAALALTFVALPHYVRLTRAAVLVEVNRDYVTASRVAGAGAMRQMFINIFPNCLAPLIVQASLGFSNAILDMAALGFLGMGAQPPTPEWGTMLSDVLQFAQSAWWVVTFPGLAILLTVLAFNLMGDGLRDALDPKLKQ
The experiment in a line: cryo-EM structure; DppBCD(E179Q)F(E187Q), co-purified complex, 2 mM AMPPNP and 2 mM MgCl2, 30 min on ice; inward-facing; both purified.

Test [8] concerns the target T4, DppC (E. coli). The experiment in a line: cryo-EM structure; DppBCD(E179Q)F(E187Q), co-purified complex, 2 mM ATPγS and 2 mM MgCl2, 30 min on ice; inward-facing; both purified.
Test [9] deals with T4, DppC (E. coli). Description: cryo-EM structure; DppA-His co-expressed and co-purified (Ni-NTA) with DppBCD(E179Q)F(E187Q), 2 mM ATPγS and 2 mM MgCl2, 30 min on ice; 2.73 Å; outward-facing; both purified.
For test [10], the target named is T4, DppC (E. coli). The experiment in a line: cryo-EM structure; apo DppBCDF, co-expressed and co-purified complex in 0.006% GDN with DTT; 3.2 Å; inward-facing; both purified.

Results on seven molecules are retold here after article PMC12136057, “Structural characterization of the ABC transporter DppABCDF in Escherichia coli reveals insights into dipeptide acquisition” (PLOS Biology, 2025).

These are yes or no findings as the source states them, for the method shown. For some of these results: In cells and extracts the contact can be indirect. Some binding calls cover weakened binding; strength is not graded here. For some of these results: Tags and fused reporters may be left off the sequences shown.

B1: endogenous DppA (protein, UniProt P23847 29-535)
chain: KTLVYCSEGSPEGFNPQLFTSGTTYDASSVPLYNRLVEFKIGTTEVIPGLAEKWEVSEDGKTYTFHLRKGVKWHDNKEFKPTRELNADDVVFSFDRQKNAQNPYHKVSGGSYEYFEGMGLPELISEVKKVDDNTVQFVLTRPEAPFLADLAMDFASILSKEYADAMMKAGTPEKLDLNPIGTGPFQLQQYQKDSRIRYKAFDGYWGTKPQIDTLVFSITPDASVRYAKLQKNECQVMPYPNPADIARMKQDKSINLMEMPGLNVGYLSYNVQKKPLDDVKVRQALTYAVNKDAIIKAVYQGAGVSAKNLIPPTMWGYNDDVQDYTYDPEKAKALLKEAGLEKGFSIDLWAMPVQRPYNPNARRMAEMIQADWAKVGVQAKIVTYEWGEYLKRAKDGEHQTVMMGWTGDNGDPDNFFATLFSCAASEQGSNYSKWCYKPFEDLIQPARATDDHNKRVELYKQAQVVMHDQAPALIIAHSTVFEPVRKEVKGYVVDPLGKHHFENVSIE
In the case of B1, the binding entry in [1] was “binds weakly”.

B2: DppD (enzyme, UniProt P0AAG0 1-327)
chain: MALLNVDKLSVHFGDESAPFRAVDRISYSVKQGEVVGIVGESGSGKSVSSLAIMGLIDYPGRVMAEKLEFNGQDLQRISEKERRNLVGAEVAMIFQDPMTSLNPCYTVGFQIMEAIKVHQGGNKSTRRQRAIDLLNQVGIPDPASRLDVYPHQLSGGMSQRVMIAMAIACRPKLLIADEPTTALDVTIQAQIIELLLELQQKENMALVLITHDLALVAEAAHKIIVMYAGQVVETGDAHAIFHAPRHPYTQALLRALPEFAQDKERLASLPGVVPGKYDRPNGCLLNPRCPYATDRCRAEEPALNMLADGRQSKCHYPLDDAGRPTL
On to B2, for which the binding entry (in test [2]; in the test with DppB (E. coli) [3]) was “binds” each time.

B3: DppD^E179Q (enzyme, UniProt P0AAG0 1-327)
chain: MALLNVDKLSVHFGDESAPFRAVDRISYSVKQGEVVGIVGESGSGKSVSSLAIMGLIDYPGRVMAEKLEFNGQDLQRISEKERRNLVGAEVAMIFQDPMTSLNPCYTVGFQIMEAIKVHQGGNKSTRRQRAIDLLNQVGIPDPASRLDVYPHQLSGGMSQRVMIAMAIACRPKLLIADQPTTALDVTIQAQIIELLLELQQKENMALVLITHDLALVAEAAHKIIVMYAGQVVETGDAHAIFHAPRHPYTQALLRALPEFAQDKERLASLPGVVPGKYDRPNGCLLNPRCPYATDRCRAEEPALNMLADGRQSKCHYPLDDAGRPTL
For the molecule B3, the binding result with DppB (E. coli) [4], with DppB (E. coli) [5] and with DppB (E. coli) [6] was “binds” throughout.

B4: DppF^E187Q with C-terminal Strep-tag (enzyme, UniProt P37313 1-334)
chain: MSTQEATLQQPLLQAIDLKKHYPVKKGMFAPERLVKALDGVSFNLERGKTLAVVGESGCGKSTLGRLLTMIEMPTGGELYYQGQDLLKHDPQAQKLRRQKIQIVFQNPYGSLNPRKKVGQILEEPLLINTSLSKEQRREKALSMMAKVGLKTEHYDRYPHMFSGGQRQRIAIARGLMLDPDVVIADQPVSALDVSVRAQVLNLMMDLQQELGLSYVFISHDLSVVEHIADEVMVMYLGRCVEKGTKDQIFNNPRHPYTQALLSATPRLNPDDRRERIKLSGELPSPLNPPPGCAFNARCRRRFGPCTQLQPQLKDYGGQLVACFAVDQDENPQR
On to B4, for which the binding entry in the test with DppC (E. coli) [7], in the test with DppC (E. coli) [8] and with DppC (E. coli) [9] was “binds” throughout.

B5: DppF with C-terminal Strep-tag II (enzyme, UniProt P37313 1-334)
chain: MSTQEATLQQPLLQAIDLKKHYPVKKGMFAPERLVKALDGVSFNLERGKTLAVVGESGCGKSTLGRLLTMIEMPTGGELYYQGQDLLKHDPQAQKLRRQKIQIVFQNPYGSLNPRKKVGQILEEPLLINTSLSKEQRREKALSMMAKVGLKTEHYDRYPHMFSGGQRQRIAIARGLMLDPDVVIADEPVSALDVSVRAQVLNLMMDLQQELGLSYVFISHDLSVVEHIADEVMVMYLGRCVEKGTKDQIFNNPRHPYTQALLSATPRLNPDDRRERIKLSGELPSPLNPPPGCAFNARCRRRFGPCTQLQPQLKDYGGQLVACFAVDQDENPQR
Turning to B5, the binding entry in the test with DppC (E. coli) [10] was “binds”.

B6: DppC (protein, UniProt P0AEG1 1-300)
chain: MSQVTENKVISAPVPMTPLQEFWHYFKRNKGAVVGLVYVVIVLFIAIFANWIAPYNPAEQFRDALLAPPAWQEGGSMAHLLGTDDVGRDVLSRLMYGARLSLLVGCLVVVLSLIMGVILGLIAGYFGGLVDNIIMRVVDIMLALPSLLLALVLVAIFGPSIGNAALALTFVALPHYVRLTRAAVLVEVNRDYVTASRVAGAGAMRQMFINIFPNCLAPLIVQASLGFSNAILDMAALGFLGMGAQPPTPEWGTMLSDVLQFAQSAWWVVTFPGLAILLTVLAFNLMGDGLRDALDPKLKQ
B6: the binding result (in test [2]; with DppB (E. coli) [4]; with DppB (E. coli) [3]; with DppB (E. coli) [5]; in the test with DppB (E. coli) [6]) was “binds” each time.

B7: DppB (protein, UniProt P0AEF8 1-339)
chain: MLQFILRRLGLVIPTFIGITLLTFAFVHMIPGDPVMIMAGERGISPERHAQLLAELGLDKPMWQQYLHYIWGVMHGDLGISMKSRIPVWEEFVPRFQATLELGVCAMIFATAVGIPVGVLAAVKRGSIFDHTAVGLALTGYSMPIFWWGMMLIMLVSVHWNLTPVSGRVSDMVFLDDSNPLTGFMLIDTAIWGEDGNFIDAVAHMILPAIVLGTIPLAVIVRMTRSSMLEVLGEDYIRTARAKGLTRMRVIIVHALRNAMLPVVTVIGLQVGTLLAGAILTETIFSWPGLGRWLIDALQRRDYPVVQGGVLLVATMIILVNLLVDLLYGVVNPRIRHKK
B7: the binding result in [2] is recorded as “binds”.
